Measurements reported in PubChem BioAssay AID2685 (National Center for Advancing Translational Sciences (NCATS), 2010).
The other results are listed elsewhere or left out. These are further read-outs of the screen, such as a control signal, another cell line or another target. No call is given for them. The list favours compounds with an active or inconclusive main result. Potencies come from curve fits of mixed quality, noted in brackets.

Assay: qHTS Assay for Lipid Storage Modulators in Drosophila S3 Cells;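 on cell number change: cells counted by Cell Tracker Red CMTPX staining in the red channel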
Settings: BODIPY lipid droplet fluorescence, 18-24 h; for cell number change: measured here: cell count max response, cells fed with added oleic acid
Procedure, shortened: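 Drosophila S3 cells got compounds at several concentrations plus oleic acid (400 uM solution). Laser-scanning cytometry with 488 nm excitation read lipid droplets at 500-530 nm and cells at 575-640 nm. Percent activity was relative to 20 uM Triacsin C.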

[1] = measured here: lipid fluorescence (Fed channel) AC50, cells fed with added oleic acid
[2] = measured here: cell number channel AC50, cells fed with added oleic acid

SMILES | cell number change [%] | AC50 [1] | AC50 [2]
CCC1CCCCN1CCCNC(=O)c1cc2c(=O)oc3ccc(C)cc3c2s1 (configuration not stated) | -13.7 | 6.51 µM [rising, single point] | –
CCN(CC)c1ccc(/C=N/N2CCN(Cc3ccccc3Cl)CC2)cc1 | -51.4 | 4.61 µM [falling, full curve] | 13 µM [falling, partial curve, poor fit]
CCOc1ccc(C(=O)Nc2nc3ccccc3[nH]2)cc1OCC | 26.9 | 0.517 µM [rising, full curve, poor fit] | 0.82 µM [rising, full curve, poor fit]
Cn1ccc(C(=O)N/N=C/c2ccncc2)n1 | 9.12 | 25.9 µM [rising, single point] | –
O=C(Nc1ccncc1)c1cc(S(=O)(=O)N2CCCCC2)ccc1Cl | 77.5 | – | 20.6 µM [rising, single point]
CC(Sc1nnc(C2CCCCC2)n1N)C(=O)NCc1ccc2c(c1)OCO2 (configuration not stated) | 14.7 | 0.0651 µM [rising, full curve, poor fit] | –
O=C(C#Cc1ccccc1)c1ccc([N+](=O)[O-])cc1 | -134 | 0.00731 µM [falling, full curve, poor fit] | 29.1 µM [falling, single point]
COc1cc(C)nc(OCCNC(=O)COc2ccc(Cl)cc2C)n1 | 56.8 | 1.46 µM [rising, full curve] | 0.58 µM [rising, full curve]
CC(C)(C)NC(=O)Cn1nnc(-c2ccccc2Cl)n1 | – | – | 1.03 µM [falling, partial curve, poor fit]
Cc1cccc(C(=O)NC(=S)NNC(=O)c2ccccc2Cl)c1 | 8.8 | 8.2 µM [rising, partial curve] | –
COc1cc(C(=O)Nc2ccc(S(=O)(=O)NC(C)C)cc2)cc(OC)c1OC | – | – | 2.31 µM [rising, partial curve]
C/C(CC(=O)C(F)(F)F)=N\NC(=O)/C(C#N)=C/N(C)C | -25.3 | – | –
CC(=O)c1sc2nc(CSc3nnnn3-c3ccccc3)[nH]c(=O)c2c1C | – | 2.31 µM [rising, partial curve] | –
NC(=O)c1c(NC(NC(=O)c2ccco2)C(=O)c2ccc(Cl)cc2)sc2c1CCCC2 (configuration not stated) | -1.54 | – | –
CC(=O)Nc1cccc(NC(=O)C(=O)NCC(c2ccco2)N2CCc3ccccc3C2)c1 (configuration not stated) | – | 3.26 µM [rising, single point] | –
Cc1cc(=O)c2n(Cc3ccc(Cl)cc3)nc[n+]2[nH]1 | 26.5 | 0.731 µM [falling, single point] | –
O=C1/C(=C/c2ccc(F)cc2)SC(=S)N1CCCC(=O)N1CCCCC1CCO (configuration not stated) | -14.6 | – | –
O=C(O)C1Nc2ccc(Br)cc2C2C=CCC12 (configuration not stated) | -11 | – | –
C[C@H](NC(=O)c1ccc(Br)cc1)C(=O)NCc1ccc(S(N)(=O)=O)cc1 | 6.22 | – | 0.092 µM [rising, full curve, poor fit]
O=c1c(Cl)c(NCc2ccccc2Cl)cnn1C12CC3CC(CC(C3)C1)C2 | – | 10.3 µM [falling, partial curve] | –
O=[N+]([O-])c1cc2c(cc1/C=N/Nc1nc(N3CCCC3)nc(N3CCCC3)n1)OCO2 | -11.9 | 0.731 µM [rising, partial curve, poor fit] | 0.517 µM [rising, partial curve, poor fit]

SMILES | cell number change [%] | AC50 [1] | AC50 [2]
O=C(Nc1cccc(C(=O)NC2CCCC2)c1)c1ccccc1 | -45.5 | 32.6 µM [falling, partial curve, poor fit] | 29.1 µM [falling, single point]
CC(=O)N[C@@H](Cc1c[nH]c2ccccc12)C(=O)NCc1ccccc1 | 9.58 | – | –
Cc1cc(S(=O)(=O)NCc2ccccc2)ccc1OCC(=O)N1CCCC1 | -8.8 | 7.31 µM [falling, single point] | –
COc1ccc(O)c(/C=N/c2nc3ccccc3n2C)c1 | 21.4 | – | –
COC(=O)c1ccc(C)c(NC(=O)CSc2nnc3ccccn23)c1 | -4.39 | 29.1 µM [rising, partial curve, poor fit] | –
O=C(CSc1nnc2ccccn12)NNC(=O)c1ccc(F)cc1 | – | – | 6.51 µM [rising, single point]
CC(=O)N1N=C(c2ccc(C)o2)CC1c1ccc(Br)cc1 (configuration not stated) | -10.9 | – | –
CCN(CC)C(=O)C1CCN(S(=O)(=O)c2ccc3oc4ccccc4c3c2)CC1 | 0.08 | – | –
CN(Cc1ccccc1)Cc1nc2c(c(=O)n(C)c(=O)n2C)n1Cc1ccccc1Cl | 11.2 | 2.31 µM [rising, single point] | –
COc1ccccc1CN(C(=O)CNC(=O)c1ccco1)C(C(=O)NCC1CCCO1)c1ccc(OC)c(OC)c1 (configuration not stated) | -14.3 | – | –
O=C(c1cc(-c2ccncc2)nc2ccccc12)N1CCN(c2ccc(N3CCOCC3)nn2)CC1 | 147 | – | 29.1 µM [rising, single point]
Cc1ccc(C2=NC3(CCCC3)N=C2SCC(=O)Nc2ccc3c(c2)OCCO3)cc1 | 18 | 1.46 µM [rising, full curve] | –
O=C(C1CCCN1C(=O)c1cccs1)N1CCN(S(=O)(=O)c2ccc(F)cc2)CC1 (configuration not stated) | 13.6 | 18.4 µM [rising, partial curve] | –
CC(NC(=S)Nc1ccc(Cl)cc1Cl)C(c1cccs1)N1CCCC1 (configuration not stated) | 32.3 | – | 10.3 µM [rising, single point]
Cc1ccc(-c2c(C)n([O-])c3c([n+]2=O)CCC3)cc1 | -20.8 | 20.6 µM [falling, single point] | –
COC(=O)CCC(C)N1CCC(Oc2ccc(C(=O)N3CCCC3)cc2)CC1 (configuration not stated) | 18.9 | – | –
C[C@@H]1CC[C@@]2(O[C@H](CCO)C[C@H](O)[C@H]2O)O1 | -17.7 | 25.9 µM [falling, single point] | –
Cn1ncc(Cl)c1C(=O)N1CCCc2ccccc21 | -17.3 | 29.1 µM [rising, single point] | –
CN(C)c1nn(C(=O)Nc2ccc(Cl)cc2Cl)cc1-c1ccccc1 | -50.5 | – | 2.06 µM [falling, full curve, poor fit]
COc1ccc(CN(C)C(=O)c2ccc3ccccc3n2)cc1F | -11.5 | 29.1 µM [rising, single point] | –
CCC(C)NS(=O)(=O)c1ccc(OCC(=O)NCc2ccccn2)cc1 (configuration not stated) | -8.14 | – | 6.51 µM [falling, single point]

Taken from above.
Under AC50 [1], CN(Cc1ccccc1)Cc1nc2c(c(=O)n(C)c(=O)n2C)n1Cc1ccccc1Cl is entered as 2.31 µM [rising, single point]
Under cell number change [%], Cc1ccc(-c2c(C)n([O-])c3c([n+]2=O)CCC3)cc1 is entered as -20.8

The results go on.

SMILES | cell number change [%] | AC50 [1] | AC50 [2]
CCNS(=O)(=O)c1ccc(NC(=O)Nc2cccc(C(F)(F)F)c2)cc1 | -47 | 0.13 µM [falling, full curve, poor fit] | 29.1 µM [falling, single point]
O=C(Nc1ccc2cn[nH]c2c1)c1ccc(Cl)c(S(=O)(=O)N2CCOCC2)c1 | 24 | 0.58 µM [rising, full curve] | –
Cc1ccc(C)c(C(C)NC(=O)C2CCCC2)c1 (configuration not stated) | -18.1 | 6.51 µM [rising, single point] | –
O=C(COc1ccccc1)Nc1nnc(-c2ccc(F)cc2)o1 | – | 6.51 µM [rising, single point] | –
Cc1ccc(SCC2(O)CCN(C(=O)c3ccc(Cl)cc3)CC2)cc1 | -22.3 | 29.1 µM [falling, single point] | 0.517 µM [rising, full curve]
Cc1cccc(C)c1NC(=O)C(NC=O)c1ccc(N(C)C)cc1 (configuration not stated) | 2.97 | 1.64 µM [falling, partial curve, poor fit] | 1.64 µM [falling, partial curve, poor fit]
Cc1ccc(S(=O)(=O)CCC(=O)Nc2nnc(-c3ccco3)o2)cc1 | 11.2 | – | –
COc1ccc(NC(=O)CCC(=O)N2CCOCC2)c([N+](=O)[O-])c1 | 12.3 | – | –
Cc1cc(C)c2c(N)c(C(=O)NN)sc2n1 | 11 | – | 4.11 µM [rising, single point]
CCN1CCN(c2oc(-c3ccccc3)nc2S(=O)(=O)c2ccc(C)cc2)CC1 | 69.4 | – | 16.4 µM [rising, single point]
CC(NC(=O)C(NS(=O)(=O)c1cccs1)C(C)C)c1ccc(S(N)(=O)=O)cc1 (configuration not stated) | -16.3 | 5.8 µM [falling, full curve, poor fit] | –
CN1C(=O)C(=O)/C(=C(/O)c2ccc(Br)cc2)C1c1ccc(F)cc1 (configuration not stated) | -21.7 | 0.0517 µM [falling, full curve, poor fit] | –
CCc1ccc(CN2CCCC(CNC(=O)c3cccc(OC)c3OC)C2)cc1 (configuration not stated) | 1.46 | 7.31 µM [rising, partial curve] | –
CC1=C(CC(=O)NCC(=O)NCC(=O)O)c2cc(F)ccc2/C1=C/c1ccc(S(C)=O)cc1 (configuration not stated) | – | – | 0.326 µM [rising, partial curve, poor fit]
COc1ccc(NC(=O)CNC(=O)c2c(C)nn(C)c2Cl)cc1 | 25.8 | – | –
O=C(Cc1c(F)cccc1Cl)N/N=C/c1cccs1 | -9.9 | 0.82 µM [rising, full curve] | –
COc1ccc(S(=O)(=O)N(CC(=O)N2CCOCC2)c2ccc(F)cc2)cc1OC | -9.21 | 35.5 µM [falling, single point] | –
CCOCC(=O)Nc1cc(Cl)c(OC)cc1OC | 17.5 | 0.58 µM [falling, single point] | –
COc1ccc(NC(=O)CN2C(=O)COc3ccc(C)cc32)c(OC)c1 | -1.17 | 10.3 µM [rising, partial curve] | –
O=C(Cn1ccc([N+](=O)[O-])n1)NCc1cccnc1 | -28.7 | 0.651 µM [falling, full curve, poor fit] | –
